# Laboratory results from the supplement of paper PMC10663445.
# Counter-ions that a name gives are not always drawn. The list shows a part of the results. Most values come without repeats; read them as rough.
# Test system: hsa-miR-132-3p
# Assay: miR-132-3p level in NGN2-iNs after compound treatment (TMM-normalised, ComBat batch-corrected) (batch-corrected normalised expression (arbitrary units)); higher = higher miR-132-3p expression
# Details: 10 µM; 24 h; human iPSC-derived NGN2 neurons (BR43)
row,Structure (SMILES),miR-132-3p level in NGN2-iNs
1,COc1cc2nc(N(C)CCCNC(=O)C3CCCO3)nc(N)c2cc1OC (stereo not given) [Alfuzosin HCl],-0.0099
2,O=C(Nc1cccc2cccnc12)c1ccc(N2C(=O)C3C4C=CC(C4)C3C2=O)cc1 (stereo not drawn) [IWR-1-endo],-0.276
3,O=C(O)/C=C/c1ccc(O)c(O)c1 [Caffeic Acid],-0.586
4,CCOc1nc2cccc(C(=O)OCc3oc(=O)oc3C)c2n1Cc1ccc(-c2ccccc2-c2noc(=O)[nH]2)cc1 [Azilsartan Medoxomil],0.78
5,CN1c2cc(O)c(N=NC(N)=O)cc2CC1S(=O)(=O)O (stereo not given) [Carbazochrome sodium sulfonate (AC-17)],2.09
6,C#CCN[C@@H]1CCc2ccccc21 [Rasagiline Mesylate],-0.709
7,COc1cc(OC2CCN(C)CC2)ccc1Nc1ncc2c(n1)n(C1CCCC1)c(=O)n2C,-0.344
8,CC(NC(=O)c1ccccc1/N=C/c1c(O)ccc2ccccc12)c1ccccc1 (stereo not given) [Sirtinol],-1.49
9,Cc1cccc(-c2[nH]c(C(C)(C)C)nc2-c2ccc3c(c2)OCO3)n1,-1.61
10,CC(C)(OCc1nn(Cc2ccccc2)c2ccccc12)C(=O)O [Bindarit (AF 2838)],-1.22
11,CC(C)NCC(O)COc1ccc(CCOCC2CC2)cc1 (stereo not given) [Betaxolol],1.45
12,CCc1nc(N)nc(N)c1-c1ccc(Cl)cc1 [Pyrimethamine],0.835
13,Cc1c(C(=O)NN2CCCCC2)nn(-c2ccc(Cl)cc2Cl)c1-c1ccc(I)cc1,0.114
14,CCN(C(=O)c1c(O)c2c(Cl)cccc2n(C)c1=O)c1ccccc1 [Laquinimod],-0.935
15,CN1CC(=O)N2[C@H](c3ccc4c(c3)OCO4)c3[nH]c4ccccc4c3C[C@@H]2C1=O [Tadalafil],0.167
16,C[C@H]1c2cccc(O)c2C(=O)C2=C(O)[C@]3(O)C(=O)C(C(N)=O)=C(O)[C@@H](N(C)C)[C@@H]3[C@@H](O)[C@@H]21 [Doxycycline HCl],-1.26
17,COc1cc2c(c(OC)c1OC)-c1c(cc3c(c1OC)OCO3)CC(C)C(C)C2 (stereo not given) [Schisandrin B (Sch B)],-0.072
18,O=C(NCC1(c2nc(-c3ccccc3)cs2)CCOCC1)c1cccc(-c2noc(C(F)(F)F)n2)c1,-0.507

row,Structure (SMILES),miR-132-3p level in NGN2-iNs
1,O=C(O)C(=O)O.[NH-][C@@H]1CCCC[C@H]1[NH-].[Pt+2] [Oxaliplatin],0.211
2,CC(C)C(=O)Oc1ccc(CO)cc1[C@H](CCN(C(C)C)C(C)C)c1ccccc1 [Fesoterodine Fumarate],-0.0469
3,Cc1ccc(NC(=O)c2ccc(CN3CCN(C)CC3)cc2)cc1Nc1nccc(-c2cccnc2)n1 [Imatinib (STI571)],-0.971
4,Cc1ccc(NC(=O)c2ccc(CN3CCN(C)CC3)cc2)cc1Nc1nccc(-c2cccnc2)n1 [Imatinib Mesylate (STI571)],0.236
5,NS(=O)(=O)c1cc2c(cc1Cl)NC(C(Cl)Cl)NS2(=O)=O (stereo not given) [Trichlormethiazide],0.197
6,CN[C@@H]1[C@H](O)[C@H](NC)[C@H]2O[C@@]3(O)C(=O)C[C@@H](C)O[C@H]3O[C@@H]2[C@H]1O [Spectinomycin 2HCl],-1.28
7,COC(=O)C1=CO[C@@H](O[C@@H]2O[C@H](CO)[C@@H](O)[C@H](O)[C@H]2O)[C@@H]2C(CO)=CC[C@H]12 [Geniposide],1.03
8,Cc1onc(-c2ccccc2Cl)c1C(=O)N[C@@H]1C(=O)N2[C@@H]1SC(C)(C)[C@@H]2C(=O)O [Cloxacillin Sodium],0.7
9,C#Cc1cccc(Nc2ncnc3cc(OCCOC)c(OCCOC)cc23)c1 [Erlotinib HCl (OSI-744)],0.464
10,COc1ccc(Cn2ccc3ccc(C(=O)NO)cc32)cc1,-0.725
11,CC1(C)O[C@H]2CC(=O)OC[C@]23[C@H]2CC[C@@]4(C)[C@H](c5ccoc5)OC(=O)[C@H]5O[C@]54[C@]2(C)C(=O)C[C@@H]13 [Limonin],-0.0588
12,NC(=O)c1cccc(-c2cc(Nc3ccc(OC(F)(F)F)cc3)ncn2)c1,1.29
13,CCCCCCOC(=O)NC(=N)c1ccc(NCc2nc3cc(C(=O)N(CCC(=O)OCC)c4ccccn4)ccc3n2C)cc1 [Dabigatran Etexilate],-0.528
14,COc1ccc(O)cc1 [Mequinol],0.496
15,Cc1c(-c2ccccc2)oc2c(C(=O)OCCN3CCCCC3)cccc2c1=O [Flavoxate HCl],-0.135
16,CCOc1ccc2ccccc2c1C(=O)N[C@@H]1C(=O)N2[C@@H]1SC(C)(C)[C@@H]2C(=O)O [Nafcillin Sodium],-0.555
17,C=C1/C(=C\C=C2/CCC[C@]3(C)[C@@H]([C@H](C)CCCC(C)C)CC[C@@H]23)C[C@@H](O)C[C@@H]1O [Alfacalcidol],-0.288

# 2 records drawn at random from the list so far, as already listed:
row,Structure (SMILES),miR-132-3p level in NGN2-iNs
9,C#Cc1cccc(Nc2ncnc3cc(OCCOC)c(OCCOC)cc23)c1 [Erlotinib HCl (OSI-744)],0.464
12,CCc1nc(N)nc(N)c1-c1ccc(Cl)cc1 [Pyrimethamine],0.835
